Binding data for two molecules are collected here from paper doi:10.1101/2023.08.31.555722.

The target of one assay is T1, Tgfbrap1-FLAG (human) (UniProt Q8WUH2).
T1 sequence: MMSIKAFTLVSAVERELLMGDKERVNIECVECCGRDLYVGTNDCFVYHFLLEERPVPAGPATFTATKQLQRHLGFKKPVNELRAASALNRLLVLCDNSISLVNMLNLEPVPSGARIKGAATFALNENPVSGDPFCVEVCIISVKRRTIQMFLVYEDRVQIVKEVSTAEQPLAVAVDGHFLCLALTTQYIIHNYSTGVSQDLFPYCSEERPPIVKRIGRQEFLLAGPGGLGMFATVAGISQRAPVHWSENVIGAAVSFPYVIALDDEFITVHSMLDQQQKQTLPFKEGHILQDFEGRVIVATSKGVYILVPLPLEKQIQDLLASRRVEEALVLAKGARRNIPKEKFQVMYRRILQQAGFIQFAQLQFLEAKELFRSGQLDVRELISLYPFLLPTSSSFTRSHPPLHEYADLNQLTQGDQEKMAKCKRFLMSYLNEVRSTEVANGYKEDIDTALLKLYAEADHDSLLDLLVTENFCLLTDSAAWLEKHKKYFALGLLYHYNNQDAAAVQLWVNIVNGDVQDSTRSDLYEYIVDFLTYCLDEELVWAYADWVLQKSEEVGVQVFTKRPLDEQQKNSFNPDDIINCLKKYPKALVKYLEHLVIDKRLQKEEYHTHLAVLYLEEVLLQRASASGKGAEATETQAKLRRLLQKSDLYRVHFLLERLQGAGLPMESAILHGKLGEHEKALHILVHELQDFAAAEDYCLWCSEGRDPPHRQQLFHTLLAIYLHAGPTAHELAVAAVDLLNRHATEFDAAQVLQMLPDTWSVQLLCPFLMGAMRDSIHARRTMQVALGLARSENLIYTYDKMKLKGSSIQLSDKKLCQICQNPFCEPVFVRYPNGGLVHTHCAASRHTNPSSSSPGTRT
Put plainly: co-IP.

Another assay deals with T2, Vps8-FLAG (human) (UniProt Q8N3P4).
T2 sequence: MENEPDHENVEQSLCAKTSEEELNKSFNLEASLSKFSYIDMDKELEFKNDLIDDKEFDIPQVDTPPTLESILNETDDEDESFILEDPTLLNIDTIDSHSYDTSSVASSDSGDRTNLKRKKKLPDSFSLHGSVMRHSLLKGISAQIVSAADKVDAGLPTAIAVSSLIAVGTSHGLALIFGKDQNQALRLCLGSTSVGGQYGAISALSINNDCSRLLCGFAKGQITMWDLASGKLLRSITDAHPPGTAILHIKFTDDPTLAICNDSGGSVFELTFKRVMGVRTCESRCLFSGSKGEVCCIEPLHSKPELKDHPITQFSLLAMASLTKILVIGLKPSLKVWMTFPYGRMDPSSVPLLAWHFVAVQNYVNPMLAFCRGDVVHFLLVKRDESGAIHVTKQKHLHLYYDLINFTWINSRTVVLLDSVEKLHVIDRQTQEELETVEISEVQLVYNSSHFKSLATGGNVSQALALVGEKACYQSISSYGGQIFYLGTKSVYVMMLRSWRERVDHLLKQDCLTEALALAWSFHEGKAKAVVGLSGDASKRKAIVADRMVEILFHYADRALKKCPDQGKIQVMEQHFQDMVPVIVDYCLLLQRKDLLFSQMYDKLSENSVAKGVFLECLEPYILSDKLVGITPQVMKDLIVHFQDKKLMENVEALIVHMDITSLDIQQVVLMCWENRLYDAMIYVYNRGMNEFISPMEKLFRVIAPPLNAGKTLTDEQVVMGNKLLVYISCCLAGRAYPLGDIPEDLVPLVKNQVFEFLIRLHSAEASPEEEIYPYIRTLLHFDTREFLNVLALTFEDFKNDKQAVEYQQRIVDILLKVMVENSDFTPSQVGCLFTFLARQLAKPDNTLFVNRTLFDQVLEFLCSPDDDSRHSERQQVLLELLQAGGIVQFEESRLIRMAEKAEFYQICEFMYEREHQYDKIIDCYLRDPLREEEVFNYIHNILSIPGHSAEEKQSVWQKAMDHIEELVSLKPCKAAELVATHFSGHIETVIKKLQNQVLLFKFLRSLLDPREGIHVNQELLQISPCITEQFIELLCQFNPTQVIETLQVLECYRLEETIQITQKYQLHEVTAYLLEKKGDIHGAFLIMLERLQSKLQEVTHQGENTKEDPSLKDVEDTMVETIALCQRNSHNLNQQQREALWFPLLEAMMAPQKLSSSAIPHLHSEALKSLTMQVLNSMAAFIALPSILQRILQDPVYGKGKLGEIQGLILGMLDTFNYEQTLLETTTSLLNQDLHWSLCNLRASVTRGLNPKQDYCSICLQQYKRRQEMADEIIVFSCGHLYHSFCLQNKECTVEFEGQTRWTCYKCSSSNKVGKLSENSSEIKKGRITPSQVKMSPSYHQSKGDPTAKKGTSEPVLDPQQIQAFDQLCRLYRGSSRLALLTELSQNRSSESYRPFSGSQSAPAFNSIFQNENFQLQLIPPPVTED
As to the kind of experiment: co-IP.

No constants are given. Whether binding was seen depends on the method and setting. In cells and extracts the contact can be indirect. Some entries that bind do so weakly or less than the wild type. Sequences can lack the tags named with a protein.

B1: Vps11 (protein, UniProt Q9H270 1-941)
chain: MAAYLQWRRFVFFDKELVKEPLSNDGAAPGATPASGSAASKFLCLPPGITVCDSGRGSLVFGDMEGQIWFLPRSLQLTGFQAYKLRVTHLYQLKQHNILASVGEDEEGINPLVKIWNLEKRDGGNPLCTRIFPAIPGTEPTVVSCLTVHENLNFMAIGFTDGSVTLNKGDITRDRHSKTQILHKGNYPVTGLAFRQAGKTTHLFVVTTENVQSYIVSGKDYPRVELDTHGCGLRCSALSDPSQDLQFIVAGDECVYLYQPDERGPCFAFEGHKLIAHWFRGYLIIVSRDRKVSPKSEFTSRDSQSSDKQILNIYDLCNKFIAYSTVFEDVVDVLAEWGSLYVLTRDGRVHALQEKDTQTKLEMLFKKNLFEMAINLAKSQHLDSDGLAQIFMQYGDHLYSKGNHDGAVQQYIRTIGKLEPSYVIRKFLDAQRIHNLTAYLQTLHRQSLANADHTTLLLNCYTKLKDSSKLEEFIKKKSESEVHFDVETAIKVLRQAGYYSHALYLAENHAHHEWYLKIQLEDIKNYQEALRYIGKLPFEQAESNMKRYGKILMHHIPEQTTQLLKGLCTDYRPSLEGRSDREAPGCRANSEEFIPIFANNPRELKAFLEHMSEVQPDSPQGIYDTLLELRLQNWAHEKDPQVKEKLHAEAISLLKSGRFCDVFDKALVLCQMHDFQDGVLYLYEQGKLFQQIMHYHMQHEQYRQVISVCERHGEQDPSLWEQALSYFARKEEDCKEYVAAVLKHIENKNLMPPLLVVQTLAHNSTATLSVIRDYLVQKLQKQSQQIAQDELRVRRYREETTRIRQEIQELKASPKIFQKTKCSICNSALELPSVHFLCGHSFHQHCFESYSESDADCPTCLPENRKVMDMIRAQEQKRDLHDQFQHQLKCSNDSFSVIADYFGRGVFNKLTLLTDPPTARLTSSLEAGLQRDLLMHSRRGT
With B1, the binding result with Tgfbrap1-FLAG (human) and with Vps8-FLAG (human) was “binds” each time.

B2: Vps18 (protein, UniProt Q9P253 1-973)
chain: MASILDEYENSLSRSAVLQPGCPSVGIPHSGYVNAQLEKEVPIFTKQRIDFTPSERITSLVVSSNQLCMSLGKDTLLRIDLGKANEPNHVELGRKDDAKVHKMFLDHTGSHLLIALSSTEVLYVNRNGQKVRPLARWKGQLVESVGWNKALGTESSTGPILVGTAQGHIFEAELSASEGGLFGPAPDLYFRPLYVLNEEGGPAPVCSLEAERGPDGRSFVIATTRQRLFQFIGRAAEGAEAQGFSGLFAAYTDHPPPFREFPSNLGYSELAFYTPKLRSAPRAFAWMMGDGVLYGALDCGRPDSLLSEERVWEYPEGVGPGASPPLAIVLTQFHFLLLLADRVEAVCTLTGQVVLRDHFLEKFGPLKHMVKDSSTGQLWAYTERAVFRYHVQREARDVWRTYLDMNRFDLAKEYCRERPDCLDTVLAREADFCFRQRRYLESARCYALTQSYFEEIALKFLEARQEEALAEFLQRKLASLKPAERTQATLLTTWLTELYLSRLGALQGDPEALTLYRETKECFRTFLSSPRHKEWLFASRASIHELLASHGDTEHMVYFAVIMQDYERVVAYHCQHEAYEEALAVLARHRDPQLFYKFSPILIRHIPRQLVDAWIEMGSRLDARQLIPALVNYSQGGEVQQVSQAIRYMEFCVNVLGETEQAIHNYLLSLYARGRPDSLLAYLEQAGASPHRVHYDLKYALRLCAEHGHHRACVHVYKVLELYEEAVDLALQVDVDLAKQCADLPEEDEELRKKLWLKIARHVVQEEEDVQTAMACLASCPLLKIEDVLPFFPDFVTIDHFKEAICSSLKAYNHHIQELQREMEEATASAQRIRRDLQELRGRYGTVEPQDKCATCDFPLLNRPFYLFLCGHMFHADCLLQAVRPGLPAYKQARLEELQRKLGAAPPPAKGSARAKEAEGGAATAGPSREQLKADLDELVAAECVYCGELMIRSIDRPFIDPQRYEEEQLSWL
Turning to B2, the binding result with Tgfbrap1-FLAG (human) and with Vps8-FLAG (human) was “binds” in each case.
